No constants are given. Whether binding was seen depends on the method and setting. In cells and extracts the contact can be indirect. Some results given as binding are weak or reduced against the parent protein; the word gives no strength. Where a sequence is shown, tags or fusion partners need not be part of it.
Target: T1, SERPINB5-GFP (human (cDNA from HaCaT)) (UniProt P36952)
T1 sequence: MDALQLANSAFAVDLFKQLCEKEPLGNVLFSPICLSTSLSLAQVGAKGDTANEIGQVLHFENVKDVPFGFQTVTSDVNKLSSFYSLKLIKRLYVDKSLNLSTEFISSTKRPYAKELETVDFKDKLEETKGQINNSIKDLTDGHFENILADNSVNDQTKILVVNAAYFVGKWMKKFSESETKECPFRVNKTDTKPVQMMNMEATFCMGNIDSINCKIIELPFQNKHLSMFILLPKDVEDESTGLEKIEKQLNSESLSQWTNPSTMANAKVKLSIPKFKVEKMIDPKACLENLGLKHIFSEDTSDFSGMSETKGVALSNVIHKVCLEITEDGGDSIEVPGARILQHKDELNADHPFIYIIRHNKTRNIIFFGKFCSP
Assay: co-IP

The chains behind the UniProt entries cited, without tags or fusion partners.
UniProt P15924: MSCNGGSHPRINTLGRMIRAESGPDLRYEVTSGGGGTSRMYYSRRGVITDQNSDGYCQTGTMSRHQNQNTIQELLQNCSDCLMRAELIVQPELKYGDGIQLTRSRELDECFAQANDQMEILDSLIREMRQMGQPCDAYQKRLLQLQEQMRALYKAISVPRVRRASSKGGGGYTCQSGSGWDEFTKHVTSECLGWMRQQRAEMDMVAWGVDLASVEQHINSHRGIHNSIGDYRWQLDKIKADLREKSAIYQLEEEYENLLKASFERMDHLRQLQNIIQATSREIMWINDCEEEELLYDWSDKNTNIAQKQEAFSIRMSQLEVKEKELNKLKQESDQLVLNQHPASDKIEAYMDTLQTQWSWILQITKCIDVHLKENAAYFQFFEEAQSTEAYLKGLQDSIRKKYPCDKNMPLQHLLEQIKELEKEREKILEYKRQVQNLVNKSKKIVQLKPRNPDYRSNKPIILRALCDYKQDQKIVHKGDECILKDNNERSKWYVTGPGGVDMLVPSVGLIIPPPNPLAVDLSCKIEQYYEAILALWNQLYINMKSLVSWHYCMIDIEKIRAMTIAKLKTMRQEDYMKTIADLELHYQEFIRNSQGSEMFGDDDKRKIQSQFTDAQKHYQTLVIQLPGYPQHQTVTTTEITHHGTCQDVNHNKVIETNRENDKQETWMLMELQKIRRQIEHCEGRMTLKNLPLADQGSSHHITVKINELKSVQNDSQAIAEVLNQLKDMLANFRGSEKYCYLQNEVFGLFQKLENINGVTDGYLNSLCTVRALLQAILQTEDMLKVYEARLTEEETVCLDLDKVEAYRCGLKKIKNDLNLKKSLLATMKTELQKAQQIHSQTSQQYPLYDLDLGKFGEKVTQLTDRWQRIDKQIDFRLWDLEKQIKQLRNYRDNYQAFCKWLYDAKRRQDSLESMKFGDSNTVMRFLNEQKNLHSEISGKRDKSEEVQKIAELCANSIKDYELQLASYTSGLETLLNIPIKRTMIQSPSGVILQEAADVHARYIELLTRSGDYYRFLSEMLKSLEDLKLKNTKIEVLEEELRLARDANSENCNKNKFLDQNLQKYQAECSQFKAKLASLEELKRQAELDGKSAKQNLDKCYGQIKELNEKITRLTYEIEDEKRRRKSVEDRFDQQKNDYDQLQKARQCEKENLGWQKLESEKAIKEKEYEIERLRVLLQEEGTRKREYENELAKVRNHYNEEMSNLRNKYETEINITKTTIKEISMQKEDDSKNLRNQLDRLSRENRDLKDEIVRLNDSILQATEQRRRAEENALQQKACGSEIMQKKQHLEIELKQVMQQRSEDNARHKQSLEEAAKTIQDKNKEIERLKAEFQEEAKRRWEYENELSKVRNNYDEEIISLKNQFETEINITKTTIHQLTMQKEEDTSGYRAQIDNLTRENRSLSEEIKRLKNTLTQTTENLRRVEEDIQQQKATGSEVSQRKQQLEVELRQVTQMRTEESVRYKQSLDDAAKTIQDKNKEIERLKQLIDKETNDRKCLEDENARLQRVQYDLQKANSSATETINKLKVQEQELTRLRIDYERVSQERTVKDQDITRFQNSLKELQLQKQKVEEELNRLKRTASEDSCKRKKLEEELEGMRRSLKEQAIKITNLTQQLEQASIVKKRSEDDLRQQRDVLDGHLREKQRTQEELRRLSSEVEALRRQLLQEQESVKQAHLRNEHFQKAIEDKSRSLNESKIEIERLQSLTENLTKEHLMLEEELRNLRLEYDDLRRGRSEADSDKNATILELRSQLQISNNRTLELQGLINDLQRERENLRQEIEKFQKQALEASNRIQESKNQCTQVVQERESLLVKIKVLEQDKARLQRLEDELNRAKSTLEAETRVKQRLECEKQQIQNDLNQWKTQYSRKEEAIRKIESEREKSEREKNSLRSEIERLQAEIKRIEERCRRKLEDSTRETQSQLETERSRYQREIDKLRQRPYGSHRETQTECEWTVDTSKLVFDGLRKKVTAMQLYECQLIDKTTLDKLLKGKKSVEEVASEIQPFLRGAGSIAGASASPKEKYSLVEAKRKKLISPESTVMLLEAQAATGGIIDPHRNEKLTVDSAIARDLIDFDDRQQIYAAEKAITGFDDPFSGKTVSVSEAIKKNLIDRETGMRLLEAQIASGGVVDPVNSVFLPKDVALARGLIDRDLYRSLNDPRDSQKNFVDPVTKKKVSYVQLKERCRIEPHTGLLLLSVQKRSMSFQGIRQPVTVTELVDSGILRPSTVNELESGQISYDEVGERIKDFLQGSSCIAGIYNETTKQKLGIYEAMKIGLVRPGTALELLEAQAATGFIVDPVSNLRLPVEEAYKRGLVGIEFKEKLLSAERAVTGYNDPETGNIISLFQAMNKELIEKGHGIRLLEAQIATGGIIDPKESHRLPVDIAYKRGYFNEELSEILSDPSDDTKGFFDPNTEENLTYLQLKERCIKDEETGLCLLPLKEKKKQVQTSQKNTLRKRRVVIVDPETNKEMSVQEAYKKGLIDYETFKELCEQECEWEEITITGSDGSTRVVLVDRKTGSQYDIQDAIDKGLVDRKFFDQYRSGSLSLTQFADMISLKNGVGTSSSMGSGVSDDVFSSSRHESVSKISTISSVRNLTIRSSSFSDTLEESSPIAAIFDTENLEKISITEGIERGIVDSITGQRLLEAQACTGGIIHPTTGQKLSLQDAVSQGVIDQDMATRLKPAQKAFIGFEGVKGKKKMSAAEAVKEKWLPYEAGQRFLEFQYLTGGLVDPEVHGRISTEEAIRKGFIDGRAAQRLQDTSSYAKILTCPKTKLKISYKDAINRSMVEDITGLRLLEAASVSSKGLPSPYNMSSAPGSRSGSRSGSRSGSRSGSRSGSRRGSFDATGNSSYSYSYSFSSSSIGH

binding: binds
Substance: desmoplakin (from UniProt P15924 1-2871)

Reference: paper doi:10.1101/2022.12.28.522133
